Laboratory results taken from PubChem BioAssay AID743266 (National Center for Advancing Translational Sciences (NCATS), 2014).
About 310 (0.076%) of roughly 410,000 compounds were called active. Inconclusive means that the source gave no clear call. Such entries were picked first, then a sample of the others. The call rests on the fitted dose curve; in most records, active means well fitted activation curve with a large enough effect; inconclusive means small, poorly fitted or top-dose-only effect, or another doubt; inactive means no such curve, though single readings can be large or run the other way. Where the call is inconclusive, the potency comes from a doubtful curve fit.

By UniProt entry, the sequences of proteins in these tests, tags left out. Where a name states a change or a piece, a line headed by the entry shows the natural chain unless it says otherwise.
UniProt Q03431: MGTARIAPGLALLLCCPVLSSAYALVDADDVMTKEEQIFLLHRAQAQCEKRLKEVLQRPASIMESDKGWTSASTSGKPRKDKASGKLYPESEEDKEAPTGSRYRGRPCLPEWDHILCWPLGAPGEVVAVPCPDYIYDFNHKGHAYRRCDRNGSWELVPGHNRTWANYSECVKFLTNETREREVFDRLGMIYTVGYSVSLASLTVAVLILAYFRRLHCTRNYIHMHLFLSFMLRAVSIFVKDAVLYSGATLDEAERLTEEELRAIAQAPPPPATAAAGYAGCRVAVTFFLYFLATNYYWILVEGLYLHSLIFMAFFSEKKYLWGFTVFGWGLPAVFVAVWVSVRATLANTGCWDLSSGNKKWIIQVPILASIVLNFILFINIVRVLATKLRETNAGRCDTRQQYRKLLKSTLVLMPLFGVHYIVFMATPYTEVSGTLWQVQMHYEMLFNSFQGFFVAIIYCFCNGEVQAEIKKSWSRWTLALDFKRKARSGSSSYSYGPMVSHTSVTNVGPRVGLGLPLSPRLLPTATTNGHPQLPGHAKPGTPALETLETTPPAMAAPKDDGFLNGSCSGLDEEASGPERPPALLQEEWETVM

Molecular target: Parathyroid hormone/parathyroid hormone-related peptide receptor (Homo sapiens) (UniProt Q03431)
Assay: qHTS for PTHR1 Agonists: Primary Screen; further: nearly all actives have a fitted effect of over 55% in size
Settings: HEK293 GP2 PTHR1 cells, GloSensor cAMP luminescence, 1 h; activation: at 115 µM (top of the series) unless noted; series mostly up to 115 µM
Summary of the method: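 HEK-293-derived GP2 cells expressing PTHR1 and a GloSensor cAMP reporter, 3,000/well, plated overnight, given luciferin plus IBMX (each 0.5 mM as added) for 1 h at 37 °C, then compound for 1 h at 37 °C. Luminescence was read after 15 min at room temperature.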
Potency means the concentration at half of the fitted maximal effect.

| Structure (SMILES) | activation | Potency |
| --- | --- | --- |
| COc1ccc(-c2nnc(C3CCN(C(=O)c4ccccc4F)CC3)o2)cc1 | inconclusive: -41.5% [activator] | – |
| CCCN1CCC(NCc2cn(C)nc2-c2ccc(Oc3ccccc3)cc2)CC1 | – | inconclusive: 126 µM [activator, single point] |
| CCOc1ccc(C2/C(=C(\O)c3c(C)[nH]c(C(=O)OC)c3C)C(=O)C(=O)N2CCN(C)C)cc1 (stereo not drawn) | inconclusive: 159% [activator] [at 57.5 µM] | – |
| COc1ccc(/C=N/NC(=O)c2ccccc2O)cc1Cn1cc([N+](=O)[O-])cn1 | – | inconclusive: 50.1 µM [activator, partial curve, poor fit] |
| COc1ccc(C(=S)N2CCN(C)CC2)cc1Br | – | inactive |
| Cc1cccc(-n2nnc(C(=O)NCc3ccc4c(c3)OCO4)c2N)c1 | – | inactive |
| CCc1ccc(NC(=S)N2CCN(C)CC2)cc1 | – | inactive |
| COc1ccc(CNC(=O)C(CC(C)C)NC(=O)c2ccccc2C)cc1 (stereo not drawn) | – | inactive |
| Cn1c(=O)c2[nH]c(CNc3ccc(C(=O)O)cc3)nc2n(C)c1=O | – | inconclusive: 89.1 µM [activator, partial curve, poor fit] |
| O=C1OCCN1C(=O)[C@H]1[C@H](c2ccc([N+](=O)[O-])cc2)C(c2ccccc2)=NN1c1ccc(Br)cc1 | – | inactive |
| CC(=O)Nc1cccc(C(=O)NC2CCCc3c2cnn3-c2ccc(C(C)(C)C)cc2)c1 (stereo not drawn) | – | inactive |
| Cc1cccc(NS(=O)(=O)c2ccc3oc(=O)c4ncn(C)c4c3c2)c1C | inconclusive: -88.1% [activator] | – |
| C=C(C(=O)c1ccccc1)C(C)CC(=O)c1ccccc1 (stereo not drawn) | – | inactive |
| Cc1cccn2cc(CCNS(=O)(=O)c3cccs3)nc12 | – | inconclusive: 10 µM [activator, partial curve, poor fit] |
| COc1cccc(-c2nnc(SCC(=O)Nc3ccc(OC)c(OC)c3)n2N)c1 | inconclusive: -32.3% [activator] [at 57.5 µM] | – |
| COc1ccc(C2c3c(oc4ccc(F)cc4c3=O)C(=O)N2Cc2ccc3c(c2)OCO3)cc1 (stereo not drawn) | – | inconclusive: 8.91 µM [activator, partial curve] |
| O=C(O)c1ccc(N/N=C/C=C/c2ccc([N+](=O)[O-])o2)cc1 | – | inactive |
| O=C1CC(c2ccccc2)Cc2[nH]c(=O)c(C(=O)Nc3cccc(F)c3)cc21 (stereo not drawn) | – | inconclusive: 44.7 µM [activator, partial curve, poor fit] |
| COCCN(C(=O)c1ccc(N2CCCC2=O)cc1)c1c(N)n(Cc2ccccc2)c(=O)[nH]c1=O | – | inconclusive: 50.1 µM [activator, partial curve] |
| O=C(Nc1ccc(F)cc1F)c1ccc(COc2c(F)c(F)cc(F)c2F)o1 | inconclusive: 41% [activator] [at 57.5 µM] | – |
| CCOC(=O)c1ccccc1NC(=O)c1cc2c(=O)oc3ccc(C)cc3c2s1 | – | inactive |
| COC(=O)c1oc2ccccc2c1-n1cccc1 | inconclusive: -52.2% [activator] | – |
| C/C(=N\NC(=O)c1ccn(C)n1)c1ccc(NC(=O)C2CCC2)cc1 | – | inconclusive: 50.1 µM [activator, partial curve, poor fit] |
| O=S(=O)(c1cccc(Cl)c1)N1CN(CC2CCCO2)c2nc3ccccc3nc21 (stereo not drawn) | inconclusive: 15.8% [activator] | – |
| CCn1c(CNC(=O)C23CC4CC(CC(C4)C2)C3)nnc1SCC(=O)Nc1ccccc1 | – | inactive |

| Structure (SMILES) | activation | Potency |
| --- | --- | --- |
| CCN(C(=O)COC(=O)c1[nH]c(C)c(C(C)=O)c1C)c1c(N)n(Cc2ccccc2)c(=O)[nH]c1=O | – | inconclusive: 56.2 µM [activator, partial curve, poor fit] |
| O=C(Oc1ccc(F)cc1)c1nc(SCc2ccccc2F)ncc1Cl | inconclusive: 35% [activator] | – |
| O=C1C(NS(=O)(=O)c2ccccc2)=C(N2CCN(c3ccc(F)cc3)CC2)C(=O)c2ccccc21 | – | inconclusive: 79.4 µM [activator, partial curve, poor fit] |
| O=C(CNC(=O)c1ccccc1)N/N=C/C=C/c1ccccc1 | – | inactive |
| COc1ccc(CCNS(=O)(=O)c2cc(/C=C/C(=O)O)ccc2C)cc1OC | – | inconclusive: 39.8 µM [activator, partial curve, poor fit] |
| Clc1ccc(N2CCN(c3ncnc4c3oc3ccccc34)CC2)cc1 | – | inconclusive: 44.7 µM [activator, single point] |
| COc1ccccc1N1C(=NC(=O)CCC2CCCC2)SC2CS(=O)(=O)CC21 (stereo not drawn) | – | inactive |
| Cn1c(-c2ccccc2O)cc2ccccc21 | – | inactive |
| CCN(CC)c1ccc(N=Cc2ccc([N+](=O)[O-])o2)cc1 | – | inactive |
| COC(=O)c1ccccc1NC(=O)C1CCCO1 (stereo not drawn) | – | inconclusive: 126 µM [activator, single point] |
| Cn1nnc2c(NCc3ccccc3Cl)ncnc21 | inconclusive: 39.7% [activator] | – |
| CCOc1ccc(Oc2nc(NC)nc(N3CCOCC3)n2)nn1 | – | inconclusive: 126 µM [activator, single point] |
| CC[C@H]1C(c2ccc(F)cc2)=NN(c2ccccc2)[C@@H]1CO | – | inactive |
| CCOc1cc(/C=C/C(=O)c2ccc(C)cc2)ccc1OCC(=O)N(C)C | – | inactive |
| CCOC(=O)c1cc(NC(=O)c2ccc(C)cc2)c(=O)n2c1oc1ccc(Cl)cc12 | – | inconclusive: 2.51 µM [activator, full curve, poor fit] |
| COc1ccc(C2=NS(=O)(=O)N(C)C(C(=O)N3CCCCC3)=C2)cc1OC | – | inactive |
| CC[C@]1(C(=O)OC)[C@H]2C(=O)N(C)C(=O)[C@H]2[C@H]2CN=C(SCc3ccc(OC)cc3)N21 | – | inconclusive: 5.01 µM [activator, full curve, poor fit] |
| CCC1(c2ccccc2)NC(=O)N(CC(=O)Nc2ccccc2N2CCCCC2)C1=O (stereo not drawn) | – | inactive |
| COc1ccc(N2CCN(CCCNC(=O)Cn3c(=O)c4cccn4c4ccccc43)CC2)cc1 | inconclusive: 30.8% [activator] | – |
| O=C(Nc1ccccc1)N(Cc1cccs1)C1CCCC1 | – | inconclusive: 126 µM [activator, single point] |
| COCCNC(=O)c1cccc(OC2CCN(Cc3ccc(OC(F)F)cc3)CC2)c1 | – | inactive |
| O=c1cc(CN2CCN(CCO)CC2)c2cc3c(cc2o1)CCC3 | – | inactive |
| CS(=O)(=O)Nc1ccccc1C(=O)OCC(=O)NC1CC1 | – | inconclusive: 39.8 µM [activator, single point] |
| CCN(CC)P(=O)(Nc1cccc(C(F)(F)F)c1)c1ccc(N(C)C)cc1NC(=O)c1ccco1 (stereo not drawn) | – | inactive |
| CCc1cccc(CC)c1NC(=O)CN1C(=O)C(=O)c2ccccc21 | – | inconclusive: 141 µM [activator, single point] |

| Structure (SMILES) | activation | Potency |
| --- | --- | --- |
| CCOc1ccccc1NC(=O)c1cc2c(=O)oc3ccccc3c2s1 | – | inconclusive: 25.1 µM [activator, partial curve] |
| O=C(CCc1nc(-c2ccccc2Cl)no1)NCc1ccco1 | – | inactive |
| COC(=O)[C@H](CCSC)NC(=O)NCc1ccccc1F | inconclusive: 293% [activator] [at 57.5 µM] | – |
| N#CCCN(C(=O)CCl)c1cccc(Cl)c1 | – | inactive |
| Cc1ccccc1C(=O)Nc1ccc(C(=O)NNC(=O)CCCOc2ccc(Cl)cc2Cl)cc1 | – | inconclusive: 35.5 µM [activator, single point] |
| CC(C)Cn1c(SCC(=O)Nc2ncccn2)nc2ccccc21 | inconclusive: 30.3% [activator] | – |
| Cc1[nH]c2ccccc2c1/C=N/Nc1ccc([N+](=O)[O-])cc1 | – | inactive |
| CCOC(=O)C1CCN(C(=O)c2cccc(S(=O)(=O)N(CC)c3ccccc3)c2)CC1 | inconclusive: 31.5% [activator] | – |
| Nc1cc(S(=O)(=O)N2CCCCC2)ccc1Oc1ccc(Cl)cc1 | – | inactive |
| CCNC(=S)NNC(=O)CCc1nc2cc(Cl)ccc2n(Cc2ccccc2)c1=O | – | inconclusive: 70.8 µM [activator, partial curve, poor fit] |
| CN1CCN(CCOC2Cc3ccccc3Sc3ccc(Cl)cc32)CC1 (stereo not drawn) | – | inconclusive: 8.91 µM [activator, full curve, poor fit] |
| OC1CCC(Nc2ncnc3sccc23)CC1 (stereo not drawn) | – | inactive |
| Nc1nc(-c2ccccc2)cs1 | – | inactive |
| CC(C)NC(=O)CSc1nc(-c2cccs2)cc(-c2ccccc2)c1C#N | – | inactive |
| CCCN(CCC)CCNC(=O)c1cc2c(-c3ccc(Cl)cc3)nn(C)c2s1 | – | inconclusive: 100 µM [activator, partial curve, poor fit] |
| O=C(OCc1cn([C@@H]2C[C@H](c3ccc(Cl)cc3)N(C(=O)C3CCCCC3)C[C@H]2O)nn1)c1ccccc1 | – | inactive |
| CCOc1ccc(-n2cc(C(=O)N3CCCCCC3)c3cc(OC)c(OC)cc3c2=O)cc1 | inconclusive: -31.9% [activator] [at 57.5 µM] | – |
| COC(=O)c1ccc(C)c(NS(=O)(=O)c2ccc(OC)cc2)c1 | – | inconclusive: 6.31 µM [activator, full curve] |
| CCCCP(=O)(c1ccccn1)c1ccccn1 | inconclusive: 33.7% [activator] | – |
| O=C(CSC(=S)N1CCCCC1)N1N=CCC1c1ccccc1 (stereo not drawn) | – | inactive |
| COc1ccc(OCCNC(=O)C(Cc2c[nH]c3ccccc23)NC(C)=O)cc1 (stereo not drawn) | inconclusive: 41.7% [activator] | – |
| COc1ccc(-c2sc3cc4c(cc3c2C#CCO)OCO4)cc1 | – | inactive |
| CCOCCCNC(=O)c1ccc2c(c1)NC(=O)C(CS(=O)(=O)Cc1ccc(F)cc1Cl)N2 (stereo not drawn) | – | inconclusive: 20 µM [activator, partial curve, poor fit] |

Gathered by group: the compounds so far containing a COOH group (3)

| Structure (SMILES) | activation | Potency |
| --- | --- | --- |
| Cn1c(=O)c2[nH]c(CNc3ccc(C(=O)O)cc3)nc2n(C)c1=O | – | inconclusive: 89.1 µM [activator, partial curve, poor fit] |
| O=C(O)c1ccc(N/N=C/C=C/c2ccc([N+](=O)[O-])o2)cc1 | – | inactive |
| COc1ccc(CCNS(=O)(=O)c2cc(/C=C/C(=O)O)ccc2C)cc1OC | – | inconclusive: 39.8 µM [activator, partial curve, poor fit] |

Reformatted: entries from further up
Structure (SMILES)	activation	Potency
Cn1c(=O)c2[nH]c(CNc3ccc(C(=O)O)cc3)nc2n(C)c1=O	–	inconclusive: 89.1 µM [activator, partial curve, poor fit]
Nc1nc(-c2ccccc2)cs1	–	inactive
